Source: PMC9437053

Experiments:
ribosomal protein S1 = ribosomal protein S1 (UniProt P0AG67); test: EMSA; details: natural S1, lower than SBS-Down; EMSA: 1 uM biotin-RNA, 1x EMSA/Gel-shift binding buffer (Beyotime), 20 C, 30 min; native PAGE in ice-cold 0.5x TBE, 170 V; salt and pH not stated; recombinant protein; residues 1-557
[1] = biological target: AcP-acetylated ribosomal protein S1 (AcP-S1Ac) (UniProt P0AG67); test: EMSA; details: AcP-acetylated, EMSA: 1 uM biotin-RNA, 1x EMSA/Gel-shift binding buffer (Beyotime), 20 C, 30 min, native PAGE in ice-cold 0.5x TBE, 170 V, salt and pH not stated, recombinant protein, residues 1-557

| Sequence | binding result (ribosomal protein S1) | binding result ([1]; affinity increased vs natural S1) | binding result ([1]; affinity decreased vs natural S1) |
| --- | --- | --- | --- |
| UCGGCUCGUAUAAUGUGUGGAACGCUUUCCGUAAAUAAAGGAGAUAUACC [SBS-Up-RNA] | binds more weakly | binds | – |
| UCGGCUCGUAUAAUGUGUGGAACGCUUUUACUGUUUUAAGGAGAUAUACC [SBS-Down-RNA] | – | – | binds more weakly |

The exact form of at least one protein or probe is not confirmed. Weaker means in comparison with the reference protein, sequence or condition of that experiment.
